Results are given in words; binding and its absence hold for the method and conditions named. For some of these results: Binding seen in cells or lysates may run through a third protein. Some binding calls cover weakened binding; strength is not graded here. For some of these results: Where a sequence is shown, tags or fusion partners need not be part of it.
Tests used:
[1] = target: T1, RGS-binding domain (RBD) of KIF20A, HA-tagged (mouse) (UniProt P97329); test: co-IP; plasmids co-transfected into HEK293 cells; lysis buffer 10 mM Tris-HCl pH 7.5, 150 mM NaCl, 1% NP40, 1 mM EDTA, 1 mM DTT; Flag or Myc antibody 1 µg/ml, magnetic protein G beads; western blot
T1 sequence: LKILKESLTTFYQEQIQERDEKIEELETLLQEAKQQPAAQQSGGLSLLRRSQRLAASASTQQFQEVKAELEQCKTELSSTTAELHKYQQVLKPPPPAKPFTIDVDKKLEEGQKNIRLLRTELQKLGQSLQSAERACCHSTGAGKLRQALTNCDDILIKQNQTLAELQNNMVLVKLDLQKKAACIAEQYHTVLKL

Amino acid sequences for entries named in this document (tags omitted). A change or cut given only in a name is not applied to a line headed by its entry.
UniProt Q9DC04: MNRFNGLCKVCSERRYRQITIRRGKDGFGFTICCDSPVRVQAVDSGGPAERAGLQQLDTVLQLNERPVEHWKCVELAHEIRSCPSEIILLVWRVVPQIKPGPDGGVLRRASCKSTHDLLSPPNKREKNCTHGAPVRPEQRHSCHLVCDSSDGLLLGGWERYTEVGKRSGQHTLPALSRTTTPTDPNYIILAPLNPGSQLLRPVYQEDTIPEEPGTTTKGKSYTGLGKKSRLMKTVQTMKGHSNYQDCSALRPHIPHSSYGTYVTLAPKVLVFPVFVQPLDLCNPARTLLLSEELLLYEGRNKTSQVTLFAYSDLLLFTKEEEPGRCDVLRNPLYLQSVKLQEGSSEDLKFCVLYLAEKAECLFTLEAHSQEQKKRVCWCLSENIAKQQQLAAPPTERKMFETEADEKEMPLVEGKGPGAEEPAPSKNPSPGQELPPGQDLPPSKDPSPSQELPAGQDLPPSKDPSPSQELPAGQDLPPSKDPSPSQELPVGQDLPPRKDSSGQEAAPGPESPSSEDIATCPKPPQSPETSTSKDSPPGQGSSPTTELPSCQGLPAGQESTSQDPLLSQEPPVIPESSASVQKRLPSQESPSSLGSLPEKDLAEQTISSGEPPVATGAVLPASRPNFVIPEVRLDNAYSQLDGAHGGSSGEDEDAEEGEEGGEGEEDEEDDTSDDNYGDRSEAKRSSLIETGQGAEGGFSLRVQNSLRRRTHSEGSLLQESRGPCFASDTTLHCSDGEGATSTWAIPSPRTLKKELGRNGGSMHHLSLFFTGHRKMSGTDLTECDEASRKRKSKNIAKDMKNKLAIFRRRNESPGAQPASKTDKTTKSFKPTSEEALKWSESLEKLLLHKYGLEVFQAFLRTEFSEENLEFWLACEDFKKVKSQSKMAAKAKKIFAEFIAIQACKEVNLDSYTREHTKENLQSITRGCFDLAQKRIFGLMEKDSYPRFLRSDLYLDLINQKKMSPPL

[2] = target: RGS domain of RGS3 alone (two-hybrid bait) (UniProt Q9DC04); test: two-hybrid; mouse E9.5/10.5 embryonic two-hybrid cDNA library screened with full-length PDZ-RGS3 and with the RGS domain alone as baits; 20 million yeast cells with each bait
[3] = target: endogenous RGS3 of embryonic mouse brain (mouse (endogenous in E15.5 brain)) (UniProt Q9DC04); test: co-IP; endogenous proteins; lysate of 14 pooled E15.5 mouse brains; 5 µg anti-RGS antibody or control IgG, magnetic protein G beads; western blot
[4] = target: RGS domain of RGS3, GFP-tagged (UniProt Q9DC04); test: co-IP; plasmids co-transfected into HEK293 cells; lysis buffer 10 mM Tris-HCl pH 7.5, 150 mM NaCl, 1% NP40, 1 mM EDTA, 1 mM DTT; Flag or Myc antibody 1 µg/ml, magnetic protein G beads; western blot

For “RGS domain of RGS3, GFP-tagged (from UniProt Q9DC04 841-966) (domain or fragment)”, the binding [1] was “binds”.

B1: KIF20A fragment, amino acids 625 to 818 (two-hybrid prey) (domain or fragment, UniProt P97329 625-818)
chain: LKILKESLTTFYQEQIQERDEKIEELETLLQEAKQQPAAQQSGGLSLLRRSQRLAASASTQQFQEVKAELEQCKTELSSTTAELHKYQQVLKPPPPAKPFTIDVDKKLEEGQKNIRLLRTELQKLGQSLQSAERACCHSTGAGKLRQALTNCDDILIKQNQTLAELQNNMVLVKLDLQKKAACIAEQYHTVLKL
With B1 the binding [2] was “binds”.

B2: endogenous KIF20A of embryonic mouse brain (protein, UniProt P97329 1-887)
chain: MSHRILSPPAGLLSDEDVVDSPILESTAADLRSVVRKDLLSDCSVISASLEDKQALLEDTSEKVKVYLRIRPFLTSELDRQEDQGCVCIENTETLVLQAPKDSFALKSNERGVGQATHKFTFSQIFGPEVGQVAFFNLTMKEMVKDVLKGQNWLIYTYGVTNSGKTYTIQGTSKDAGILPQSLALIFNSLQGQLHPTPDLKPLLSNEVIWLDSKQIRQEEMKKLSLLIGGLQEEELSTSVKKRVHTESRIGASNSFDSGVAGLSSTSQFTSSSQLDETSQLWAQPDTVPVSVPADIRFSVWISFFEIYNELLYDLLEPPSHQHKRQTLRLCEDQNGNPYVKDLNWIHVRDVEEAWKLLKVGRKNQSFASTHMNQQSSRSHSIFSIRILHLQGEGDIVPKISELSLCDLAGSERCKHQKSGERLKEAGNINTSLHTLGRCIAALRQNQQNRSKQNLIPFRDSKLTRVFQGFFTGRGRSCMIVNVNPCASTYDETLHAAKFSALASQLVHAPPVHLGIPSLHSFIKKHSPQVGPGLEKEDKADSDLEDSPEDEADVSVYGKEELLQVVEAMKALLLKERQEKLQLEIQLREEICNEMVEQMQQREQWCSERLDNQKELMEELYEEKLKILKESLTTFYQEQIQERDEKIEELETLLQEAKQQPAAQQSGGLSLLRRSQRLAASASTQQFQEVKAELEQCKTELSSTTAELHKYQQVLKPPPPAKPFTIDVDKKLEEGQKNIRLLRTELQKLGQSLQSAERACCHSTGAGKLRQALTNCDDILIKQNQTLAELQNNMVLVKLDLQKKAACIAEQYHTVLKLQGQASAKKRLGANQENQQPNHQPPGKKPFLRNLLPRTPTCQSSTDSSPYARILRSRHSPLLKSPFGKKY
In the case of B2, the binding [3] is reported as “binds”.

B3: RGS-binding domain (RBD) of KIF20A, HA-tagged (domain or fragment, UniProt P97329 625-818)
chain: LKILKESLTTFYQEQIQERDEKIEELETLLQEAKQQPAAQQSGGLSLLRRSQRLAASASTQQFQEVKAELEQCKTELSSTTAELHKYQQVLKPPPPAKPFTIDVDKKLEEGQKNIRLLRTELQKLGQSLQSAERACCHSTGAGKLRQALTNCDDILIKQNQTLAELQNNMVLVKLDLQKKAACIAEQYHTVLKL
For B3, the binding [4] was “binds”.

Source: PMC6045631
